Here are results for 1 molecule from paper PMC7446811.

The assay addresses glutathione S-transferase-tagged LsTUB (GST-TUB) (Laodelphax striatellus). The experiment in a line: pull-down; GST-LsTUB (500 μg) with glutathione-Sepharose beads and viruliferous SBPH extract (1 mg) in 50 mM Tris, 150 mM NaCl, 0.1% Triton X-100, pH 8.0, 4°C, 16 h; blot with anti-NS3 and anti-GST; only the target purified.

No constants are given. Whether binding was seen depends on the method and setting. Binding seen in cells or lysates may run through a third protein. Binding calls can cover weak binding; strength is not graded here.

B1: RSV NS3 in extracts of viruliferous SBPH (protein, UniProt P26658 1-211)
chain: MNVFTSSVGSVEFDHPLLLENDLTSLSINCDDVHCSSRALCYIYDIHSSRHPSIDEHQFLRLLHGPDDAVTLGSFLKTLIWILSHDKNLPEEYRLPTIMMSSSYVKFFTEVKPRPPSTNCWTCRMSKDNLPFTVPSVKGFPPDAELYIVPISDHDGKPVKFDNRKTLYRSPSKKRHKYVISSDKPPLSARYVKYVDSSALESLPGSSPAVL
B1: the binding entry was “binds”.
